In paper PMC12697771:
Read-outs that look alike come from different tables or passages of the source. These are yes or no findings as the source states them, for the method shown. Binding seen in cells or lysates may run through a third protein. Some results given as binding are weak or reduced against the parent protein; the word gives no strength.

The chains behind the UniProt entries cited, without tags or fusion partners.
UniProt P61290: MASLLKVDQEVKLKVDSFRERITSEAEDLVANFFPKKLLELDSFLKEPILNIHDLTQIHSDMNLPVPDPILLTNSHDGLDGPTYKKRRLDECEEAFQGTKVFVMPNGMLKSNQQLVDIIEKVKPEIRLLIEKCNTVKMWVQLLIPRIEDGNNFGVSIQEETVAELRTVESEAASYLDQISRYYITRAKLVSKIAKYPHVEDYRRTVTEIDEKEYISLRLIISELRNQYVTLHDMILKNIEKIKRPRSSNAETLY
UniProt Q9EPW2: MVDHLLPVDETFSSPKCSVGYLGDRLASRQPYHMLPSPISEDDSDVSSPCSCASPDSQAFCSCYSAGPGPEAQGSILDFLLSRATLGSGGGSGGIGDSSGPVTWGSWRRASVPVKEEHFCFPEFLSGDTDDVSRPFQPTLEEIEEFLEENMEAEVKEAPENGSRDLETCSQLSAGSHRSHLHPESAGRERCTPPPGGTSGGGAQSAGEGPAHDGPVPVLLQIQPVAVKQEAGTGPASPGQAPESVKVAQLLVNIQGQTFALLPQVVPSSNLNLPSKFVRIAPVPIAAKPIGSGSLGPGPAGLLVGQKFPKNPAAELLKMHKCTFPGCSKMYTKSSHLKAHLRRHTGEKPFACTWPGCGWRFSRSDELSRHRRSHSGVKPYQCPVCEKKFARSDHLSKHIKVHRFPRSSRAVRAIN

Key:
[1] = target: Proteasome activator complex subunit 3 (PSME3), REGγ (UniProt P61290); experiment: co-IP; cell lysate in RIPA buffer (50 mM Tris HCl, 150 mM NaCl, 1 mM EDTA, 10% glycerol, protease inhibitor); anti-DYKDDDDK/anti-HA agarose overnight at 4 °C; SDS-PAGE
[2] = target: Proteasome activator complex subunit 3 (PSME3), REGγ (UniProt P61290); experiment: as above; remark: listed apart in the source

## KLF15 (from UniProt Q9EPW2 1-415)
[1]
  binding: binds

B1: ACADM (protein, UniProt P45952 26-421)
chain: KAAHKQEPGLGFSFELTEQQKEFQATARKFAREEIIPVAPEYDKSGEYPFPLIKRAWELGLINAHIPESCGGLGLGTFDACLITEELAYGCTGVQTAIEANSLGQMPVILAGNDQQKKKYLGRMTEQPMMCAYCVTEPSAGSDVAAIKTKAEKKGDEYVINGQKMWITNGGKANWYFLLARSNPDPKVPASKAFTGFIVEADTPGIHIGKKELNMGQRCSDTRGIAFEDVRVPKENVLIGEGAGFKIAMGAFDRTRPTVAAGAVGLAQRALDEATKYALDRKTFGKLLVEHQGVSFLLAEMAMKVELARLSYQRAAWEVDSGRRNTYYASIAKAFAGDIANQLATDAVQIFGGYGFNTEYPVEKLMRDAKIYQIYEGTAQIQRLIIAREHIEKYKN
[2]
  binding: binds
